In paper PMC11624264, “Phosphorylation of P-stalk proteins defines the ribosomal state for interaction with auxiliary protein factors” (EMBO Reports, 2024):
Results are given in words; binding and its absence hold for the method and conditions named. Some results given as binding are weak or reduced against the parent protein; the word gives no strength.

T1: ΔuL10 (amino acids 199–312), AP-treated (dephosphorylated) form (S. cerevisiae) (UniProt P05317)
T1 sequence: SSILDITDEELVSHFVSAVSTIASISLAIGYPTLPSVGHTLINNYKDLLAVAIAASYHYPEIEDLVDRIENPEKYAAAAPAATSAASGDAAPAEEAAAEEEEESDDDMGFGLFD

T2: P2B, AP-treated (dephosphorylated) form (S. cerevisiae) (UniProt P02400)
T2 sequence: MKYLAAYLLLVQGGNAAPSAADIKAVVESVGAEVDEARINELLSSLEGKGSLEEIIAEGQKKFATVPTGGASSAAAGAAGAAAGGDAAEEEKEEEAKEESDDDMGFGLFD

T3: P2A, AP-treated (dephosphorylated) form (S. cerevisiae) (UniProt P05319)
T3 sequence: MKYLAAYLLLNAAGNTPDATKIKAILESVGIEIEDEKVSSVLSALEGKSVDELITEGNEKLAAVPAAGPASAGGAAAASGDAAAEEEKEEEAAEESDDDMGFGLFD


Tests used:
Experiment in all cases: native MS; natively assembled complex released from 80S ribosomes by thrombin, purified to homogeneity by the 6xHis tag of ΔuL10 (Ni-NTA) and SEC (Superose 12), checked by SDS-PAGE, native PAGE and native MS of the intact complex in 200 mM ammonium acetate pH 7.5
[1] = target: T1, ΔuL10 (amino acids 199–312), AP-treated (dephosphorylated) form (S. cerevisiae)
[2] = target: T2, P2B, AP-treated (dephosphorylated) form (S. cerevisiae)
[3] = target: T3, P2A, AP-treated (dephosphorylated) form (S. cerevisiae)

| Binder | binding [1] | binding [2] | binding [3] |
| --- | --- | --- | --- |
| P1A, AP-treated (dephosphorylated) form (protein, UniProt P05318 1-106) MSTESALSYAALILADSEIEISSEKLLTLTNAANVPVENIWADIFAKALDGQNLKDLLVNFSAGAAAPAGVAGGVAGGEAGEAEAEKEEEEAKEESDDDMGFGLFD | binds | binds |  |
| P1B, AP-treated (dephosphorylated) form (protein, UniProt P10622 1-106) MSDSIISFAAFILADAGLEITSDNLLTITKAAGANVDNVWADVYAKALEGKDLKEILSGFHNAGPVAGAGAASGAAAAGGDAAAEEEKEEEAAEESDDDMGFGLFD | binds |  | binds |

Now from value to binder:

| binding [1] | binding [2] | binding [3] | Binder |
| --- | --- | --- | --- |
| binds |  |  | P2B, AP-treated (dephosphorylated) form (protein, UniProt P02400 1-110) MKYLAAYLLLVQGGNAAPSAADIKAVVESVGAEVDEARINELLSSLEGKGSLEEIIAEGQKKFATVPTGGASSAAAGAAGAAAGGDAAEEEKEEEAKEESDDDMGFGLFD |
| binds |  |  | P2A, AP-treated (dephosphorylated) form (protein, UniProt P05319 1-106) MKYLAAYLLLNAAGNTPDATKIKAILESVGIEIEDEKVSSVLSALEGKSVDELITEGNEKLAAVPAAGPASAGGAAAASGDAAAEEEKEEEAAEESDDDMGFGLFD |
